## Library screening results

The values are deposited in ChEMBL (CHEMBL3988442, “University of Dundee, Small-Polar-MMV Screening Library” (2021)).

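Whole-cell assay for inhibitors of Mycobacterium tuberculosis growth, labelled Cornell in the record; the read-out is not stated. The concentration is filed as 10 mM, unlikely as a test dose, so the dose is not known. Higher means stronger inhibition (inferred from two other growth screens of the library). Size under these conditions: about 53,000 compounds, about 900 of them at 50% or above in at least one test.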

Results are given as percent effect. The record does not define 0% and 100%; most values in the screen are far below 50% and negative numbers occur (in some assays of this library far below -100). This is an unselected part of the compounds tested.

SMILES	percent effect
CN(C)C(C(=O)NCC1(O)CCCCC1)c1cccc(F)c1 (stereo not given)	39.6
CC(C)(C)CC(=O)NC[C@H]1OC[C@@H](NC2CCC(F)(F)CC2)[C@@H]1O	9.661
CC(c1cccnc1)N(C)Cc1ccccn1 (stereo not given)	-32.82
O=C(O)C(F)(F)F.O=C(O)C(F)(F)F.[H][C@@]12CN(Cc3cnn(C)c3)C[C@]1([H])OCCN2c1ncccn1	-14.66
COc1c(CNC2CCCOc3ccc(F)cc32)c(C)nn1C.Cl (stereo not given)	16.76
CCCN1CCN(C(=O)c2cnn(-c3ccccc3F)c2)CC1	5.392
[H][C@]12CN(Cc3cccc(OC)c3)CCN1C(=O)N(CCOC)C2	-0.3356
Cn1c(=O)n(C)c2nc(Br)c(CC(=O)c3ccccc3)n2c1=O	-17.82
Cc1cc(C)n(C2CCCN(C(=O)c3csc(C4CC4)n3)C2)n1 (stereo not given)	-57.5
Cc1ccc2c(c1)C1(CCNCC1)CC2NC1CC1.Cl.Cl (stereo not given)	-1.416
O=C(C(C1CC1)C1CC1)N1CCC(n2ccnn2)CC1	8.06
Cc1cc(C(=O)N(C)C)c2c(Br)cccc2n1	-4.209
Cc1nc(NCC2CC2)nc2c1COCC21CCN(S(=O)(=O)C2CC2)C1 (stereo not given)	14.13
O=C(O)C(F)(F)F.[H][C@@]12C[C@H](C(=O)NC)CN(CC3CCOCC3)[C@]1([H])CCO2	-0.8211
CC(NC(=O)NCCNc1cnccn1)c1cccs1 (stereo not given)	17.81
CCn1c(N)nc2cc(C(=O)NCCc3sccc3C)cnc21	2.898
Cn1ccc(NC(=O)Cc2cccc(F)c2)n1	10.06
O=C(NCC1(Sc2ccccc2)CC1)c1cc[nH]n1	-55.98
CCN(CC)c1ncnc2c1CCN(c1ccc(C)nn1)CC2	20.17
CC(C)n1nc2c(cc1=O)CN(Cc1nc(-c3ccco3)no1)CC2	21.86
Cc1csc(CNc2nc3c(s2)c(C)nn3C)n1	21.44
COCCN1CC(O)CN(C(=O)c2cccc(C(F)(F)F)c2)CC1=O (stereo not given)	4.22
Cc1ccccc1NC(=O)Nc1c[nH]c(=O)[nH]c1=O	36.23
CN1CCN(CC2CC2)C(=O)C12CCN(C(=O)CC(F)(F)F)CC2.O=C(O)C(F)(F)F	10.8
CSC(C)Cc1c(-c2ccccc2)ncn1CCCNc1cccnc1 (stereo not given)	2.093
O=C(NC1CCC(N2C(=O)CCC2=O)CC1)c1c[nH]c2ccccc12 (stereo not given)	-5.021
CCn1cnnc1CN(C)C(=O)C1CCC(=O)N(CC2CCCCC2)C1 (stereo not given)	-9.834
[H][C@]12CC[C@@]3(N=C(C)N(CC)C3=O)[C@@]1([H])CN(S(=O)(=O)CC(C)C)C2	11.36
CCN1CCC2(CC1)CC(COC)N(Cc1csc(C)n1)C2.O=C(O)C(F)(F)F.O=C(O)C(F)(F)F (stereo not given)	16.16
CC(C)NC(=O)c1nnn(-c2ccc(F)cc2)c1C1CC1	14.43
COc1ccc(CCNC(=O)C2CC2)c(Cl)c1	5.779
O=C(O)C(F)(F)F.O=C(O)C(F)(F)F.c1ccc(CN2CCc3ncnc(C4CC4)c3CC2)nc1	13.02
CC(C(=O)NC1CC1)S(=O)(=O)Cc1nc(Cc2ccccc2)no1 (stereo not given)	-8.942
CCC(CO)N(C/C(C)=C/c1ccco1)Cc1ccccn1 (stereo not given)	10.38
Cn1nc(COCC2CC2)c2c1CCN(Cc1cccs1)C2.O=C(O)C(F)(F)F	3.278
CC(c1cccc(Cl)c1)N1CCN(S(C)(=O)=O)CC1 (stereo not given)	28.98
Cn1c(Cn2cccn2)nnc1C1CCN(Cc2ccccc2Cl)CC1	8.689
Cc1cc(C(F)F)nn1C(C)C(=O)NCc1nccn1C (stereo not given)	-1.635
Cc1n[nH]c2nc(-c3cccc(Cl)c3)cc(C(=O)O)c12	17.61
Cc1ccc(C(=O)N(C)CCCc2cnn(C)c2)cc1N1CCNC1=O	-5.535
CCCc1cc(=O)[nH]c2nnc(SCC(=O)NCCc3ccccc3)n12	10.85
O=C(NCC1Cn2nnc(-c3cccc(F)c3)c2CO1)c1ccc[nH]1 (stereo not given)	-11.89
CCCc1noc(CN2CCC(C(=O)Nc3cnn(CC)c3)CC2)n1	-35.84
O=C(Nc1ccc(Cl)cc1)c1nn(C2CCS(=O)(=O)C2)c2c1CCCC2 (stereo not given)	20.28
O=C(O)C(F)(F)F.O=C(O)C(F)(F)F.[H][C@@]12C[C@@H](Oc3cncnc3)CN1CCN(C(=O)Cc1ccccn1)C2	-51.86
COCCCc1nc(-c2ccc(S(=O)(=O)N3CCCC3)cc2)cs1	33.53
Cc1ccc(CN2CCOC3(CCN(C(=O)C4CC=CC4)CC3)C2)cc1.O=C(O)C(F)(F)F	18.72
CN1CCCN(C[C@@H]2CN(C(=O)N3CCOCC3)C[C@@H]2CO)CC1	24.03
O=C(O)c1ccc2c(c1)C1(CCCCC1)CN2C(=O)c1cccs1	42.04
Cc1cc(Oc2ccccc2C)nc(C2CCCN2)n1 (stereo not given)	21.38